This is one part of the list.
Experiments:
Experiment in all cases: log2 fold change, soluble protein after heating vs DMSO (PISA); higher = thermal stabilisation; K562 lysate, 10 uM; active = over 0.2 and 3.5 SD of the protein, either way, in both replicates (recomputed)
alvocidib = compound: CN1CC[C@H](c2c(O)cc(O)c3c(=O)cc(-c4ccccc4Cl)oc23)[C@H](O)C1 [alvocidib]
Method in brief: (§1)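 A 30 min treatment with 10 μM compound was applied to crude K562 extract at 1 mg/mL protein in PBS pH 7.4 with 1 mM MgCl2. Heating for 3 min spanned 48°C-58°C, after which aliquots were pooled, adjusted to 0.5% NP-40 at 4°C and spun at 21,000xg for 90 min. TMTpro 16plex LC-MS/MS of the supernatant, with channel sums equalised, gave values recorded as log-two fold change in thermal stability against solvent controls, from duplicates.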

Protein sequences, listed by entry. Tags and fused reporters are not part of them. Lines headed by an entry give the natural chain unless they say otherwise; changes in a name come on top.
UniProt Q9BYN0: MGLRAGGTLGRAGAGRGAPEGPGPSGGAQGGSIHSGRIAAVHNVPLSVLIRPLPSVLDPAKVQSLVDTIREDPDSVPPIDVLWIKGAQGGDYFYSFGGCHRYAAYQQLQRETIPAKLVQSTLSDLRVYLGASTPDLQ
UniProt P84103: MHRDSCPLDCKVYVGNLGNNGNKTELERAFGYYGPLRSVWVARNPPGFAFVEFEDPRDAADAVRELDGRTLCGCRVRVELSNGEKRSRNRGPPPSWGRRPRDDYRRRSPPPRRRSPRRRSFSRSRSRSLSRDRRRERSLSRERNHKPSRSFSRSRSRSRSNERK
UniProt P52630: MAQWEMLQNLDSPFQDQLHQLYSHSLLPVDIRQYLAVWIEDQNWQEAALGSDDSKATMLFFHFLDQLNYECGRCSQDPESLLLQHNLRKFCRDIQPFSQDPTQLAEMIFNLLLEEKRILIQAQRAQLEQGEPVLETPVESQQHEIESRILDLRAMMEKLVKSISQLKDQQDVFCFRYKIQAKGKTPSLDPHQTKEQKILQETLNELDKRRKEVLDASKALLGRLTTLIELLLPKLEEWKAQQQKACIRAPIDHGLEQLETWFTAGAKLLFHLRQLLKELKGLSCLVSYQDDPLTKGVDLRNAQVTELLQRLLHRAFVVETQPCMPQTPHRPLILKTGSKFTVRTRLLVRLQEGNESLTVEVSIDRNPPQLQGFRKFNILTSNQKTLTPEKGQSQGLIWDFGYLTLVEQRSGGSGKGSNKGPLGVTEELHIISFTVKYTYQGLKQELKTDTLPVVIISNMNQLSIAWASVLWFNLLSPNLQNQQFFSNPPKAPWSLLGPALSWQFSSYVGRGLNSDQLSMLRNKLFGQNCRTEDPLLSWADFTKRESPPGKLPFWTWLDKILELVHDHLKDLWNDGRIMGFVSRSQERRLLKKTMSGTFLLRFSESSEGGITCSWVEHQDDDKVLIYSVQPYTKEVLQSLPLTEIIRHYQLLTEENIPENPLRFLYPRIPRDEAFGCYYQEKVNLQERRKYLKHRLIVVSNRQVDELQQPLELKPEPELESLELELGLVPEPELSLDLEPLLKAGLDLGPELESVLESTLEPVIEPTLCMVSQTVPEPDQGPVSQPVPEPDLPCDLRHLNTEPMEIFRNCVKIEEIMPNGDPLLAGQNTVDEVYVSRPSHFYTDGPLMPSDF
UniProt Q01082, whole entry, looked up: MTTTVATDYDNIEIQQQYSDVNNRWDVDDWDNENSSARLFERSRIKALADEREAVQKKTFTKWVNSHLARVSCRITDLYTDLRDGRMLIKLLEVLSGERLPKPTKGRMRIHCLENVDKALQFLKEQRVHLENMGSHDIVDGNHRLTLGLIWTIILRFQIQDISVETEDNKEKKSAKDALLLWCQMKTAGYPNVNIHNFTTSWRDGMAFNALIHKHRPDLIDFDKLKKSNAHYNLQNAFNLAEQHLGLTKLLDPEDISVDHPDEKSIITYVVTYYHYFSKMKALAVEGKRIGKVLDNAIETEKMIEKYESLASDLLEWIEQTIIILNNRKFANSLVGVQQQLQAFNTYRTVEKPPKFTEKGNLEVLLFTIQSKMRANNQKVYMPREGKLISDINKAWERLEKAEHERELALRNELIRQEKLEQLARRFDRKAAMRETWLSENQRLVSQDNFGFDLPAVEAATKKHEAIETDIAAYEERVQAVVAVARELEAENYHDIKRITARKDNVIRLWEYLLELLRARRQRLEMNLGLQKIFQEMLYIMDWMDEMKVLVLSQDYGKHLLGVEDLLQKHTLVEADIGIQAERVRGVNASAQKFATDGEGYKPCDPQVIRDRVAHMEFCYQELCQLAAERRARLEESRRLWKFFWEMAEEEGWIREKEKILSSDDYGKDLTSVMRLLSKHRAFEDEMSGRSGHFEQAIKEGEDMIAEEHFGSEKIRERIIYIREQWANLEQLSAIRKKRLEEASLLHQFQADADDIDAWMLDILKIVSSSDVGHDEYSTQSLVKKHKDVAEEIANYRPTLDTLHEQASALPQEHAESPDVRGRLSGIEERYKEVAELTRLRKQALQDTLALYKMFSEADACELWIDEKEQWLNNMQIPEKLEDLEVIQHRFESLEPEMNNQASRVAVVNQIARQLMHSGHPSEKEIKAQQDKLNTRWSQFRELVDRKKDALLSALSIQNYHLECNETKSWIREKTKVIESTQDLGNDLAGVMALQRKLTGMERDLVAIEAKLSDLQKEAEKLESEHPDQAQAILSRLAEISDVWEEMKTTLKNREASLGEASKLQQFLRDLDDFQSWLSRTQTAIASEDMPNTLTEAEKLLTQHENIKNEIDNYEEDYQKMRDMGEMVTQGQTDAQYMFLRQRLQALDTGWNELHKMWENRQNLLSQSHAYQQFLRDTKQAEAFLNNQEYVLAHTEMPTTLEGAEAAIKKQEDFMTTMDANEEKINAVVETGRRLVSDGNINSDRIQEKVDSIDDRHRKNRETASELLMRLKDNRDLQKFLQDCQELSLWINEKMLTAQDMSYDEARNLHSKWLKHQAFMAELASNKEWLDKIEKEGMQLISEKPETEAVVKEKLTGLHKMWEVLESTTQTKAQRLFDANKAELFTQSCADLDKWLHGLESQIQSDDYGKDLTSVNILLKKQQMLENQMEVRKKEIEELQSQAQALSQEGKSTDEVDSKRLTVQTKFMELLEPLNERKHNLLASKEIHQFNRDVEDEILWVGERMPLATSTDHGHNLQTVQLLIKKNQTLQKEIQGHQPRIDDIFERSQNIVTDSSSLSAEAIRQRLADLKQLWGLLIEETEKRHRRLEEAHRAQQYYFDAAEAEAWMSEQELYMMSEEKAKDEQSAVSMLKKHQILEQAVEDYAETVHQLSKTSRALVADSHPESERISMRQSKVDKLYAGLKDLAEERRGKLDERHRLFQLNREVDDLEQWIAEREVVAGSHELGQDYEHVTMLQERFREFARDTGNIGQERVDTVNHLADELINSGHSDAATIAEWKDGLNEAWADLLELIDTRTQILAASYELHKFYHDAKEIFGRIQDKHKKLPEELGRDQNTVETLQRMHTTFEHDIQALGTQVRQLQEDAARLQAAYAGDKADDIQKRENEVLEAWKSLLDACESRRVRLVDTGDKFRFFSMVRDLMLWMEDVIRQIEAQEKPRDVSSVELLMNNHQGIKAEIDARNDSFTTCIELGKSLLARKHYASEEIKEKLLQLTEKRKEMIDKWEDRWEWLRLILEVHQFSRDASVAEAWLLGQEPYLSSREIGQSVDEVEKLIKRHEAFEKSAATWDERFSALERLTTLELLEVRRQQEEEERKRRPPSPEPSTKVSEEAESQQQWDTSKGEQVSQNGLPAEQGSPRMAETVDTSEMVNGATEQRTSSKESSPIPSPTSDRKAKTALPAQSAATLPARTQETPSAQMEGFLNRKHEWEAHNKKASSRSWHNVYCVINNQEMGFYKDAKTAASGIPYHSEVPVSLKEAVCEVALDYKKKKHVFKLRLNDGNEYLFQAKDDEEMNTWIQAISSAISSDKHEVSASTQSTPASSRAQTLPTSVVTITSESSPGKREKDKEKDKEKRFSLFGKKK
UniProt Q9GZT4: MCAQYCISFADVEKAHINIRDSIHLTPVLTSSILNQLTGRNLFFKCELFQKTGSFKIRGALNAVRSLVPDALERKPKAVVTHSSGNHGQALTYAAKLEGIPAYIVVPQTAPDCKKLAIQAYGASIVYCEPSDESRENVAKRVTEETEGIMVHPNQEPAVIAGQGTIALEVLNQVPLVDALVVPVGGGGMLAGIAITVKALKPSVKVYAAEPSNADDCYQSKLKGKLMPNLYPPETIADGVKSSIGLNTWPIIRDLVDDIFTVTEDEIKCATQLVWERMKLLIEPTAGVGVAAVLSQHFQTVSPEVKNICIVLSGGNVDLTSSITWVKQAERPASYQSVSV
UniProt Q9H254, whole entry, looked up: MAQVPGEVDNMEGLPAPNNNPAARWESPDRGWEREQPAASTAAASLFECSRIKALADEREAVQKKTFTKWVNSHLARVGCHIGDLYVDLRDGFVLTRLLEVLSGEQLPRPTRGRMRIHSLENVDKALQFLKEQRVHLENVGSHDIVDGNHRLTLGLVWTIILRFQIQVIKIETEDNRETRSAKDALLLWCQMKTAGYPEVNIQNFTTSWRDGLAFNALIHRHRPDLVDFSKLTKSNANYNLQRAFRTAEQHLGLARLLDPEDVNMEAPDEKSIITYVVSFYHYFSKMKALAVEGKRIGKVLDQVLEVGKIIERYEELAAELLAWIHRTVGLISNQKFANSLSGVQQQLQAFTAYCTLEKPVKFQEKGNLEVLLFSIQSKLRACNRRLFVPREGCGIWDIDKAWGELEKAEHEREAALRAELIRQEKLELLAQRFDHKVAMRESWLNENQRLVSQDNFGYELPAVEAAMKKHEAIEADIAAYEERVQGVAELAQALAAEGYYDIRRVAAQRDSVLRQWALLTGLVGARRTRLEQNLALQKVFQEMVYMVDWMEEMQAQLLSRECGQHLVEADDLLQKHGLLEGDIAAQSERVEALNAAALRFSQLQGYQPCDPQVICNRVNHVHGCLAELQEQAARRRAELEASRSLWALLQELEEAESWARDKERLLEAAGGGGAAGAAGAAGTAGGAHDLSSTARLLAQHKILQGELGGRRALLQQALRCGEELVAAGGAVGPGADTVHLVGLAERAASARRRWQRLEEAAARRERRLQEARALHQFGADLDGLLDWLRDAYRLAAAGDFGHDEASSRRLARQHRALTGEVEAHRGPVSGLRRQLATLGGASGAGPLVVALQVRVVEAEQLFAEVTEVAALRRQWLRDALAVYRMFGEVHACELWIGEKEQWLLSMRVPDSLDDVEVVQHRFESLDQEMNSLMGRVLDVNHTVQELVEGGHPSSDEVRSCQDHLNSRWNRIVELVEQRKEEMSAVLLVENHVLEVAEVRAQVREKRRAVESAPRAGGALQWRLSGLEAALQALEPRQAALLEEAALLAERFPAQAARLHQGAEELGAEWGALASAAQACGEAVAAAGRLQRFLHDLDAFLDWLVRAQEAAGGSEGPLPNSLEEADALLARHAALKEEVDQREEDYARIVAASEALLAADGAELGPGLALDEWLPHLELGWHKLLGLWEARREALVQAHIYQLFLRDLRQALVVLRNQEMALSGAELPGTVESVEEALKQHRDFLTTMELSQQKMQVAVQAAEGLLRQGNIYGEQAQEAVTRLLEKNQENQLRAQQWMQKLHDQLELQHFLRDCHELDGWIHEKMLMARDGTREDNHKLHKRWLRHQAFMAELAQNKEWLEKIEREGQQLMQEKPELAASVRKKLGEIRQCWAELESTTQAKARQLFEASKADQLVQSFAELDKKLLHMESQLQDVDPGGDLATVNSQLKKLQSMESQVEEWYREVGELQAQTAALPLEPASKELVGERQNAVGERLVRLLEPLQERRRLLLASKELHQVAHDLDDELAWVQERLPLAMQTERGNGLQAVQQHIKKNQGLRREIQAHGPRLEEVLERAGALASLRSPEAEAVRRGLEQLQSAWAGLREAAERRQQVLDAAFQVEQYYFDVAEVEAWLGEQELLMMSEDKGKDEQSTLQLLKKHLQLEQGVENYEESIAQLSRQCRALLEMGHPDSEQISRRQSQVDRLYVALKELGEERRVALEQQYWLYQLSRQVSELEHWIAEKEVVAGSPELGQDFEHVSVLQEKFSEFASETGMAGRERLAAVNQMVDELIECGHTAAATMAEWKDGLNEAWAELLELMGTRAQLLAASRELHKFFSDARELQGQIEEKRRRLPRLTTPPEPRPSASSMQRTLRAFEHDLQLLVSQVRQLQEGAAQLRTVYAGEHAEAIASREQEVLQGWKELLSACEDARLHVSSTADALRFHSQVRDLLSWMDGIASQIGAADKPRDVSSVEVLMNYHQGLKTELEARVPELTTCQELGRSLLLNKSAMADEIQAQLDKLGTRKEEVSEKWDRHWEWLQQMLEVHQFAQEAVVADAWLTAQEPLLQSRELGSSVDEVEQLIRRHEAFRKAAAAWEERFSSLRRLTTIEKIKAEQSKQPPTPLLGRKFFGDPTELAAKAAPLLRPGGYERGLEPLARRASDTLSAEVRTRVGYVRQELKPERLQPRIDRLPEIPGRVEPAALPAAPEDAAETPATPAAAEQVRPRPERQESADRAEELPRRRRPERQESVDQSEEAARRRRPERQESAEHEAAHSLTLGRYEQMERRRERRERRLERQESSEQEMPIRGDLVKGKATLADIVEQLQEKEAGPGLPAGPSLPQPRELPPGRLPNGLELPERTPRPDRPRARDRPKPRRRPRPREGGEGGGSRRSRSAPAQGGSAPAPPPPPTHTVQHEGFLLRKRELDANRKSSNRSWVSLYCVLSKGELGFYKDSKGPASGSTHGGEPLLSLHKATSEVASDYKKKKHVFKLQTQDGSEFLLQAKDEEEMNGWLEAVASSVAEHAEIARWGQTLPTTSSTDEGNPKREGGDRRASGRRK
UniProt P09132: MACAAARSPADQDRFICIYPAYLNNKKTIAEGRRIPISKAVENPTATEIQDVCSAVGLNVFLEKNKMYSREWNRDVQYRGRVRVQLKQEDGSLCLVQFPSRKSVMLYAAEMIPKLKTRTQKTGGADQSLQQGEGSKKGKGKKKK

Tubastatin A = compound: CN1CCc2c(c3ccccc3n2Cc2ccc(C(=O)NO)cc2)C1 [Tubastatin A]
Method in brief: as §1

[1] = compound: CNC(=O)C1=CC=CC=C1NC2=NC(=NC=C2Cl)NC3=C(C=C(C=C3)N4CCOCC4)OC
Method in brief: as §1

defactinib = compound: CNC(=O)c1ccc(Nc2ncc(C(F)(F)F)c(NCc3nccnc3N(C)S(C)(=O)=O)n2)cc1 [defactinib]
Method in brief: as §1

[2] = compound: CNc1nc(-c2ccc3c(N)n[nH]c3c2)cc(N2C[C@@H](C(=O)NC3CCCCC3)CC[C@H]2C)n1
Method in brief: as §1

encorafenib = compound: COC(=O)N[C@@H](C)CNc1nccc(-c2cn(C(C)C)nc2-c2cc(Cl)cc(NS(C)(=O)=O)c2F)n1 [encorafenib]
Method in brief: as §1

[3] = compound: COC(=O)[C@H](CCSC)NC(=O)C1=C(C=C(C=C1)NC[C@H](CS)N)C2=CC=CC=C2
Method in brief: as §1

alisertib = compound: COc1cc(Nc2ncc3c(n2)-c2ccc(Cl)cc2C(c2c(F)cccc2OC)=NC3)ccc1C(=O)O [alisertib]
Method in brief: as §1

[4] = compound: COc1cc2nc(-c3cc(F)ccc3O)nc(N[C@@H]3CNC[C@H]3C(C)(C)O)c2cc1OC
Method in brief: as §1

gefitinib = compound: COc1cc2ncnc(Nc3ccc(F)c(Cl)c3)c2cc1OCCCN1CCOCC1 [gefitinib]
Method in brief: as §1

Measured: log2 fold change

SRRT (UniProt Q9BXP5)
inactive: alvocidib 0.014 | Tubastatin A -0.195 | [1] 0.008 | defactinib -0.013 | [2] -0.02 | encorafenib 0.024 | [3] 0.202 | alisertib 0.03 | [4] -0.01 | gefitinib 0.009

SRXN1 (UniProt Q9BYN0)
inactive: alvocidib 0.041 | Tubastatin A 0.053 | [1] 0.061 | defactinib 0.025 | [2] -0.03 | encorafenib -0.08 | [3] 0.233 | alisertib 0.033 | [4] 0.028 | gefitinib -0.017

STARD9 (UniProt Q9P2P6)
inactive: alvocidib 0 | Tubastatin A -0.008 | [1] 0.059 | defactinib -0.011 | [2] -0.015 | encorafenib 0.01 | [3] 0.063 | alisertib -0.072 | [4] -0.081 | gefitinib -0.002

SPTLC2 (UniProt O15270)
inactive: alvocidib -0.066 | Tubastatin A 0.007 | [1] 0.003 | defactinib 0.016 | [2] -0.063 | encorafenib 0.018 | [3] -0.036 | alisertib -0.025 | [4] 0.014 | gefitinib 0.026

SQSTM1 (UniProt Q13501)
inactive: alvocidib 0.059 | Tubastatin A -0.013 | [1] -0.026 | defactinib 0.007 | [2] -0.018 | encorafenib -0.012 | [3] -0.042 | alisertib -0.005 | [4] -0.016 | gefitinib -0.018

STAM2 (UniProt O75886)
inactive: alvocidib -0.002 | Tubastatin A 0.042 | [1] 0.023 | defactinib -0.006 | [2] -0.015 | encorafenib 0.039 | [3] -0.001 | alisertib -0.006 | [4] 0.001 | gefitinib -0.015

SPATA5L1 (UniProt Q9BVQ7)
inactive: alvocidib 0.022 | Tubastatin A -0.16 | [1] 0.019 | defactinib 0.036 | [2] 0.23 | encorafenib 0 | [3] -0.061 | alisertib 0.024 | [4] -0.052 | gefitinib -0.013

ST13 (UniProt P50502)
inactive: alvocidib -0.009 | Tubastatin A 0.022 | [1] -0.015 | defactinib -0.015 | [2] 0.001 | encorafenib -0.011 | [3] -0.014 | alisertib 0.02 | [4] 0.001 | gefitinib 0.037

SRSF2 (UniProt Q01130)
inactive: alvocidib -0.135 | Tubastatin A 0.084 | [1] -0.017 | defactinib -0.018 | [2] -0.005 | encorafenib 0.033 | [3] -0.016 | alisertib -0.004 | [4] 0.016 | gefitinib 0.015

SPTAN1 (UniProt Q13813)
inactive: alvocidib 0.005 | Tubastatin A 0.022 | [1] 0.015 | defactinib 0.001 | [2] -0.006 | encorafenib 0.015 | [3] -0.024 | alisertib -0.018 | [4] 0.016 | gefitinib 0.008

SRSF3 (UniProt P84103)
inactive: alvocidib -0.051 | Tubastatin A 0.028 | [1] -0.036 | defactinib -0.017 | [2] 0.039 | encorafenib 0.018 | [3] -0.026 | alisertib 0.043 | [4] 0.005 | gefitinib 0.038

STAT3 isoform 2 (UniProt P40763)
inactive: alvocidib 0.006 | Tubastatin A -0.001 | [1] 0.02 | defactinib -0.005 | [2] -0.019 | encorafenib 0.022 | [3] 0.01 | alisertib 0.007 | [4] 0.008 | gefitinib 0.019

SPTB isoform 2 (UniProt P11277)
inactive: alvocidib 0.001 | Tubastatin A -0.086 | [1] -0.033 | defactinib -0.015 | [2] -0.015 | encorafenib -0.01 | [3] 0.057 | alisertib -0.002 | [4] 0.016 | gefitinib 0.005

SRP68 (UniProt Q9UHB9)
inactive: alvocidib 0.068 | Tubastatin A -0.034 | [1] -0.009 | defactinib 0.053 | [2] -0.006 | encorafenib 0.048 | [3] 0.011 | alisertib -0.019 | [4] 0.019 | gefitinib -0.013

SRSF4 (UniProt Q08170)
inactive: alvocidib 0.022 | Tubastatin A -0.04 | [1] -0.041 | defactinib -0.003 | [2] -0.127 | encorafenib 0.092 | [3] -0.03 | alisertib 0 | [4] -0.016 | gefitinib 0.01

SRSF10 (UniProt O75494)
inactive: alvocidib -0.02 | Tubastatin A -0.076 | [1] -0.13 | defactinib -0.06 | [2] -0.051 | encorafenib 0.006 | [3] -0.064 | alisertib 0.116 | [4] 0.051 | gefitinib -0.014

SSB (UniProt P05455)
inactive: alvocidib 0.057 | Tubastatin A 0.018 | [1] -0.02 | defactinib -0.019 | [2] -0.015 | encorafenib -0.029 | [3] 0.022 | alisertib -0.003 | [4] 0.002 | gefitinib -0.008

SSBP1 (UniProt Q04837)
inactive: alvocidib -0.011 | Tubastatin A 0.041 | [1] -0.011 | defactinib 0.005 | [2] -0.004 | encorafenib -0.009 | [3] -0.001 | alisertib 0.008 | [4] 0.018 | gefitinib -0.007

SPCS3 (UniProt P61009)
inactive: alvocidib 0 | Tubastatin A 0.018 | [1] -0.066 | defactinib 0.025 | [2] -0.111 | encorafenib 0.035 | [3] -0.008 | alisertib -0.043 | [4] -0.039 | gefitinib 0.083

SSBP3 (UniProt Q9BWW4)
inactive: alvocidib 0.028 | Tubastatin A 0.074 | [1] 0 | defactinib 0.072 | [2] 0.008 | encorafenib 0.032 | [3] 0.02 | alisertib 0.018 | [4] -0.016 | gefitinib -0.054

STAT2 (UniProt P52630)
inactive: alvocidib 0.02 | Tubastatin A -0.183 | [1] 0.016 | defactinib -0.03 | [2] -0.018 | encorafenib 0.023 | [3] -0.014 | alisertib 0.006 | [4] 0.004 | gefitinib -0.023

SRGAP2 (UniProt O75044)
inactive: alvocidib -0.012 | Tubastatin A -0.071 | [1] -0.017 | defactinib -0.014 | [2] 0.028 | encorafenib -0.023 | [3] 0.079 | alisertib -0.001 | [4] -0.003 | gefitinib -0.018

SRSF11 (UniProt Q05519)
inactive: alvocidib -0.062 | Tubastatin A 0.029 | [1] -0.033 | defactinib -0.041 | [2] 0.012 | encorafenib -0.003 | [3] -0.029 | alisertib 0.025 | [4] 0.007 | gefitinib -0.001

SPTBN1 (UniProt Q01082)
inactive: alvocidib 0.02 | Tubastatin A -0.011 | [1] 0.006 | defactinib -0.014 | [2] -0.005 | encorafenib 0.001 | [3] -0.003 | alisertib -0.002 | [4] -0.004 | gefitinib -0.004

SRR (UniProt Q9GZT4)
inactive: alvocidib 0.01 | Tubastatin A -0.175 | [1] -0.035 | defactinib 0.067 | [2] 0.133 | encorafenib 0.01 | [3] 0.058 | alisertib 0.077 | [4] -0.107 | gefitinib 0.008

SPTBN4 (UniProt Q9H254)
inactive: alvocidib -0.009 | Tubastatin A 0.131 | [1] 0.038 | defactinib -0.104 | [2] 0.074 | encorafenib 0.021 | [3] -0.105 | alisertib 0.077 | [4] -0.067 | gefitinib -0.017

SPG7 (UniProt Q9UQ90)
inactive: alvocidib 0.01 | Tubastatin A -0.054 | [1] 0.028 | defactinib 0.03 | [2] 0.081 | encorafenib -0.034 | [3] 0.066 | alisertib -0.053 | [4] -0.021 | gefitinib 0.099

STAM (UniProt Q92783)
inactive: alvocidib 0.006 | Tubastatin A 0.023 | [1] 0.016 | defactinib -0.033 | [2] 0.015 | encorafenib 0.003 | [3] -0.043 | alisertib -0.023 | [4] -0.007 | gefitinib -0.017

SRPRB (UniProt Q9Y5M8)
inactive: alvocidib -0.041 | Tubastatin A 0.035 | [1] -0.01 | defactinib -0.038 | [2] -0.024 | encorafenib -0.002 | [3] 0 | alisertib 0.017 | [4] 0.061 | gefitinib -0.025

Pulled one by one from the list above, two records:
SPTBN1 (UniProt Q01082)
inactive: alvocidib 0.02 | Tubastatin A -0.011 | [1] 0.006 | defactinib -0.014 | [2] -0.005 | encorafenib 0.001 | [3] -0.003 | alisertib -0.002 | [4] -0.004 | gefitinib -0.004

SRRT (UniProt Q9BXP5)
inactive: alvocidib 0.014 | Tubastatin A -0.195 | [1] 0.008 | defactinib -0.013 | [2] -0.02 | encorafenib 0.024 | [3] 0.202 | alisertib 0.03 | [4] -0.01 | gefitinib 0.009

The list goes on.

SRP19 (UniProt P09132)
inactive: alvocidib -0.043 | Tubastatin A -0.013 | [1] 0.059 | defactinib 0.034 | [2] -0.087 | encorafenib 0.034 | [3] -0.099 | alisertib 0.023 | [4] 0.006 | gefitinib -0.003
